The text below walks through data of patent US9938331.

The chains behind the UniProt entries cited, without tags or fusion partners. Where a name states a change or a piece, a line headed by the entry shows the natural chain unless it says otherwise. A line that says so, or that is headed by a name, gives the form on record, which may keep a tag or linker. Residues count along the entry.
human VEGF (P15692, form named): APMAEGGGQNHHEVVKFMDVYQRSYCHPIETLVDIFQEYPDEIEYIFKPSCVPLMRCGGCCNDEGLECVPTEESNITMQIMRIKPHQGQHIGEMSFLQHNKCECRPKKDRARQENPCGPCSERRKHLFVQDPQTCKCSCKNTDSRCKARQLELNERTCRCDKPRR
VEGF121 antigen (P15692, form named): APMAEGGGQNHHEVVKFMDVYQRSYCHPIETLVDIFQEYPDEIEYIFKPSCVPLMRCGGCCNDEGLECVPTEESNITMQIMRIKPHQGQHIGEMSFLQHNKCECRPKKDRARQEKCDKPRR
UniProt P10747, residues 19-152: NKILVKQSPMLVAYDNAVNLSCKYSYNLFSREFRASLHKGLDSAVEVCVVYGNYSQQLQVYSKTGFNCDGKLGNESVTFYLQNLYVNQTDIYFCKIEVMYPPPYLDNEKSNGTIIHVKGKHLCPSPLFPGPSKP

These are yes or no findings as the source states them, for the method shown. Some binding calls cover weakened binding; strength is not graded here.

Test [1] concerns the target T1, EpCAM (UniProt P16422).
T1 sequence (looked up): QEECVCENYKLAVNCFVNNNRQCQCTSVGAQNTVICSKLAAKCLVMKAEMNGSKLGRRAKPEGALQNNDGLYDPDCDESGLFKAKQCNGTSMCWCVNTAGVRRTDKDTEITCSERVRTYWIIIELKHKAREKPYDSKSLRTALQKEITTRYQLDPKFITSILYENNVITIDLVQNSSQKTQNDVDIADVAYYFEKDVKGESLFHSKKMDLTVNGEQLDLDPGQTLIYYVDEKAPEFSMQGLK
Description: affinity selection of phagemid libraries against EpCAM (EpCam 2).

In test [2] the target is human VEGF (human) (UniProt P15692). Description: phage ELISA on coated antigen after panning of 1SS libraries. A general note: An ELISA detects its analyte on a solid surface through an enzyme-linked reagent.
For test [3], the target named is VEGF121 antigen (UniProt P15692). Description: phage panning of buildup libraries and screening.
Test [4] concerns the target T1, EpCAM. Description: affinity selection of phage peptide libraries against EpCAM (EpCam 1).
Test [5] deals with T1, EpCAM. The test is described as follows: phage ELISA on coated antigen after panning of 1SS libraries.
Test [6] has as its target CD28 (UniProt P10747). The description is as above.
Test [7] concerns the target human VEGF (human) (UniProt P15692). Description: phage panning of cysteine-constrained peptide libraries.

For the molecule HSLTCYGQICWVSNI, the binding result in test [1] is “binds”.
On to PHCRQHPLDRWMCSPS [sNG0026S3.057], for which the binding result in test [2] is on record as “binds”.

B1: SEQ ID NO 357 (designed binder)
chain: QAAGPSGPCSYYAYFTCTNHWCPSPPFAFTCTNHWCPSYYDSAYCGQSGGS
As for B1, in test [3], the binding entry is listed as “binds”.
As to CSYNQVLGRAC [sNG0025S3.001], the binding result in test [2] is “binds”.
On to LTLECIGNICYVPHH, for which the binding result in test [1] is on record as “binds”.
Regarding LFCWGNVCHF [sNG0017S3.006], the binding result in test [4] and in test [5] was “binds” in each case.
QAAGPSGPCAAYAYFTCTNHWCPSYYSAACGQSGGSG (designed binder) [SEQ ID NO 358]: the binding entry in test [3] is reported as “binds”.
Still for that read-out and setting: next, QAAGPSGPCAYYSYFTCTNHWCPSYYSSYCGQSGGSG (designed binder) [SEQ ID NO 360]: “binds”.
For the molecule QLVCGFSDSSRLCYMR [sNG0018S3.009], the binding entry in test [5] is recorded as “binds”.
With HTILTCDSGFCTLFGP [sNG0028S3.012], in test [6], the binding entry is listed as “binds”.
Take AGFSCENYFFCPPKNL [sNG0028S3.016]: in test [6], the binding entry is “binds”.
On to RPGMACSGQLCWLNSP [sNG0018S3.015], for which the binding entry in test [4] and in test [5] was “binds” in each case.
In the case of PRNLTCYGQICFQSQH [sNG0018S3.011], the binding entry in test [4] and in test [5] was “binds” in each case.
In the case of SWCTVFGNHDPSCNSR [sNG0028S3.004], in test [6], the binding entry is reported as “binds”.
On to RAGITCHGHLCWPITD [sNG0018S3.019], for which the binding entry in test [4] and in test [5] was “binds” each time.
With ELLLERCSWCSLFGPP [sNG0028S3.086], in test [6], the binding entry is recorded as “binds”.
In the case of PHNLACQNSICVRLPR [sNG0018S3.021], the binding result in test [4] and in test [5] was “binds” throughout.
PGLRCLGTLCWVPNR: in test [1], the binding entry is given as “binds”.
Still for that read-out and setting: next, RGLACQGNICWRLNP: “binds”.
SYICHNCLLS [sNG0017S3.021]: the binding entry in test [5] was “binds”.
For PALRCLGQLCWVTPT, in test [1], the binding entry is given as “binds”.
KRLLECGALCALFGPP [sNG0028S3.008]: the binding entry in test [6] is reported as “binds”.
RNLECLGNVCSLLNQ: the binding entry in test [1] is reported as “binds”.
In the case of SSCSLFNNTRHWSCTD [sNG0026S3.008], the binding entry in test [2] is listed as “binds”.
Take RCPSRVPWCV [sNG0017S3.011]: the binding entry in test [5] is recorded as “binds”.
Consider RNLTCWNTVCYAYPN, for which the binding result in test [1] is “binds”.
As to LRLCTYGGGKYDCSST [sNG0026S3.050], in test [2], the binding result is listed as “binds”.
On to QAAGPSGPCAYAYYFTCTNHWCPSYYAYYCGQSGGSG (designed binder) [SEQ ID NO 359], for which, in test [3], the binding entry is “binds”.
NSFYLCHSSVCGQLPS [sNG0028S3.082]: the binding result in test [6] is recorded as “binds”.
With PHGLTCTNQICFYGNT [sNG0018S3.006], the binding result in test [4] and in test [5] was “binds” each time.
As for RAITCLGTLCWPTSP, the binding entry in test [1] was “binds”.
Take LRCIGQICWR [sNG0017S3.022]: the binding entry in test [4] and in test [5] was “binds” throughout.
As to PFACPHSSGFRCLYNI [sNG0026S3.005], the binding result in test [2] was “binds”.
Same read-out and setting: the value for SLCSMFGDTPHWNCVP [sNG0026S3.007] was “binds”.
Consider LTCWGQVCFR [sNG0017S3.009], for which the binding entry in test [4] and in test [5] was “binds” each time.
FQCTRHWCPI: the binding entry in test [7] is “binds”.
Regarding RGLKCSGHLCWVTPQ, the binding entry in test [1] is reported as “binds”.
On to PHGLICAGSICFWPPP [sNG0018S3.007], for which the binding entry in test [4] and in test [5] was “binds” each time.
Turning to HGLACYNQLCWVNPH, the binding entry in test [1] is recorded as “binds”.
On to PHGLWCHGSLCHYPLA [sNG0018S3.012], for which the binding entry in test [4] and in test [5] was “binds” each time.
On to PHALQCYGSLCWPSHL [sNG0018S3.018], for which the binding entry in test [4] and in test [5] was “binds” throughout.
On to SFTCSLFPSPHCTTLR [sNG0026S3.054], for which the binding entry in test [2] is given as “binds”.
With RGLKCLGQLCWVSSN, the binding result in test [1] is “binds”.
Turning to TTAYPDCFWCSLFGPP [sNG0028S3.085], the binding entry in test [6] is recorded as “binds”.
Regarding MLDTTICPWCSLFGPV [sNG0028S3.081], in test [6], the binding entry was “binds”.
Turning to LKCLYNICWV [sNG0017S3.024], the binding entry in test [4] and in test [5] was “binds” in each case.
As for RPALKCIGTLCSLANP [sNG0018S3.014], the binding result in test [4] and in test [5] was “binds” throughout.
For the molecule HGLTCYNQICWAPRP, the binding result in test [1] is recorded as “binds”.
The same measure, in the same setting: next, HTLECLGNICWVINQ: “binds”.
Regarding SLSQQSCDWCWLFGPP [sNG0028S3.060], in test [6], the binding entry is recorded as “binds”.
As for LLCYITSPGNRLCSPY [sNG0018S3.022], the binding entry in test [5] is recorded as “binds”.
For the molecule HGLTCHNTVCWVHHP, the binding result in test [1] is “binds”.
For the molecule NLWHVCHTSLCHSRLA [sNG0028S3.092], the binding entry in test [6] is given as “binds”.
Take LRCWGMLCYA [sNG0017S3.017]: the binding entry in test [4] and in test [5] was “binds” each time.
Take GSYCQYRPFSSFCNRS [sNG0026S3.048]: the binding entry in test [2] is recorded as “binds”.
